From US20200222474A1, “COMPOSITIONS AND METHODS FOR INCREASING PHYTOCHEMICAL BIOAVAILABLITY AND BIOACTIVITY” (North Carolina State University, priority 2017, published 2020)
The source gives many values for each of these; only a part stands here.

System: L. acidophilus NCFM
Experiment: RNA-seq transcriptional analysis of L. acidophilus NCFM growing on plant glycosides
Format: cell-based, Lactobacillus acidophilus
[1] = LBA0160 Anaerobic ribonucleoside triphosphate reductase, COG F
[2] = LBA0197 Oligopeptide binding protein, COG E
[3] = LBA0198 Peptide binding protein, COG E
[4] = LBA0225 6-p-beta-glucosidase, COG G
[5] = LBA0227 Celiohiose-specific PTS IIC, COG G
[6] = LBA0228 Transcriptional regulator, COG G
[7] = LBA0455 Mannose-specific PTS system component IIC, COG G
[8] = LBA0456 Mannose-specific PTS system component IID, COG G
[9] = LBA0491 Cellobiose-specific PTS IIC, COG G
[10] = LBA0503 ABC transporter permease, COG G
[11] = LBA0606 PTS system arbutin-like IIBC component, COG G
[12] = LBA0609 PTS enzyme II ABC component, COG G
[13] = LBA0680 Glycogen branching enzyme, COG G
[14] = LBA0681 Glucose-1-phosphate adenylyltransferase, COG G
[15] = LBA0682 Glucose-1-phosphate adenylyltransferase, COG G
[16] = LBA0683 Glycogen synthase, COG G
[17] = LBA0685 Glycogen phosphorylase, COG G
[18] = LBA0686 Amylopullulanase, COG G
[19] = LBA0687 Phosphoglucomutase, COG G
[20] = LBA0724 Transcription antiterminator, COG G
[21] = LBA0726 Phospho-beta-galactosidase II, COG G
[22] = LBA0874 Phospho-beta-galactosidase I, COG G
[23] = LBA0875 Transcriptional regulator, COG G
[24] = LBA0876 Cellobiose-specific PTS IIC, COG G
[25] = LBA0877 Cellobiose-specific PTS IIA, COG G
[26] = LBA0986 Galactose mutarotase related ensyme, COG G
[27] = LBA1102 Transmembrane protein, COG G
[28] = LBA1400 Oligopeptide ABC transporter substrate binding protein, COG E
[29] = LBA1433 Dihydroxyacetone kinase, COG G
[30] = LBA1434 Dihydroxyacetone kinase, COG G

Which results are given for N#C[C@H](O[C@@H]1O[C@H](CO[C@@H]2O[C@H](CO)[C@@H](O)[C@H](O)[C@H]2O)[C@@H](O)[C@H](O)[C@H]1O)c1ccccc1 [Amygdalin]?
Log2 differential normalized TPM ratio compared to glucose (LBA0146 PTS system HA, COG G): 3.5; Log2 differential normalized TPM ratio compared to lactose (LBA0146 PTS system HA, COG G): 1.9; Transcripts per million (rpm) (LBA0146 PTS system HA, COG G): 74.1 rpm; Log2 differential normalized TPM ratio compared to glucose [1]: 2.3; Log2 differential normalized TPM ratio compared to lactose [1]: 1.4; Transcripts per million (rpm) [1]: 696.6 rpm; Log2 differential normalized TPM ratio compared to glucose [2]: −0.8; Log2 differential normalized TPM ratio compared to lactose [2]: 1.5; Transcripts per million (rpm) [2]: 30.6 rpm; Log2 differential normalized TPM ratio compared to glucose [3]: −0.8; Log2 differential normalized TPM ratio compared to lactose [3]: 2.2; Transcripts per million (rpm) [3]: 20.2 rpm; Log2 differential normalized TPM ratio compared to glucose [4]: 6.5; Log2 differential normalized TPM ratio compared to lactose [4]: 6.9; Transcripts per million (rpm) [4]: 2089.8 rpm; Log2 differential normalized TPM ratio compared to glucose [5]: 9.9; Log2 differential normalized TPM ratio compared to lactose [5]: 9.6; Transcripts per million (rpm) [5]: 2893.2 rpm; Log2 differential normalized TPM ratio compared to glucose [6]: 6.3; Log2 differential normalized TPM ratio compared to lactose [6]: 6.3; Transcripts per million (rpm) [6]: 940.7 rpm; Log2 differential normalized TPM ratio compared to glucose [7]: 1.6; Log2 differential normalized TPM ratio compared to lactose [7]: 0.6; Transcripts per million (rpm) [7]: 714.4 rpm; Log2 differential normalized TPM ratio compared to glucose [8]: 1.7; Log2 differential normalized TPM ratio compared to lactose [8]: 0.6; Transcripts per million (rpm) [8]: 1293.7 rpm; Log2 differential normalized TPM ratio compared to glucose [9]: 4.7; Log2 differential normalized TPM ratio compared to lactose [9]: 2.6; Transcripts per million (rpm) [9]: 154.2 rpm; Log2 differential normalized TPM ratio compared to glucose [10]: 1.8; Log2 differential normalized TPM ratio compared to lactose [10]: 0.6; Transcripts per million (rpm) [10]: 8.9 rpm; Log2 differential normalized TPM ratio compared to glucose (LBA0505 Fructosidase, COG G): 1.9; Log2 differential normalized TPM ratio compared to lactose (LBA0505 Fructosidase, COG G): 1; Transcripts per million (rpm) (LBA0505 Fructosidase, COG G): 11.1 rpm; Log2 differential normalized TPM ratio compared to glucose [11]: 4.9; Log2 differential normalized TPM ratio compared to lactose [11]: 2.7; Transcripts per million (rpm) [11]: 105.7 rpm; Log2 differential normalized TPM ratio compared to glucose [12]: 3.4; Log2 differential normalized TPM ratio compared to lactose [12]: 1.8; Transcripts per million (rpm) [12]: 422.6 rpm; Log2 differential normalized TPM ratio compared to glucose [13]: 2.1; Log2 differential normalized TPM ratio compared to lactose [13]: .2; Transcripts per million (rpm) [13]: 237.7 rpm; Log2 differential normalized TPM ratio compared to glucose [14]: 2.8; Log2 differential normalized TPM ratio compared to lactose [14]: 1; Transcripts per million (rpm) [14]: 234.7 rpm; Log2 differential normalized TPM ratio compared to glucose [15]: 3; Log2 differential normalized TPM ratio compared to lactose [15]: 1.2; Transcripts per million (rpm) [15]: 319.1 rpm; Log2 differential normalized TPM ratio compared to glucose [16]: 3.1; Log2 differential normalized TPM ratio compared to lactose [16]: 1.2; Transcripts per million (rpm) [16]: 426.2 rpm; Log2 differential normalized TPM ratio compared to glucose [17]: 3.2; Log2 differential normalized TPM ratio compared to lactose [17]: 1.4; Transcripts per million (rpm) [17]: 470.1 rpm; Log2 differential normalized TPM ratio compared to glucose [18]: 3.1; Log2 differential normalized TPM ratio compared to lactose [18]: 1.3; Transcripts per million (rpm) [18]: 453.3 rpm; Log2 differential normalized TPM ratio compared to glucose [19]: 2.3; Log2 differential normalized TPM ratio compared to lactose [19]: 0.6; Transcripts per million (rpm) [19]: 487.4 rpm; Log2 differential normalized TPM ratio compared to glucose [20]: 6.4; Log2 differential normalized TPM ratio compared to lactose [20]: 4.6; Transcripts per million (rpm) [20]: 2061.6 rpm; Log2 differential normalized TPM ratio compared to glucose (LBA0725 PTS EII system, COG G): 9.7; Log2 differential normalized TPM ratio compared to lactose (LBA0725 PTS EII system, COG G): 7; Transcripts per million (rpm) (LBA0725 PTS EII system, COG G): 1214.2 rpm; Log2 differential normalized TPM ratio compared to glucose [21]: 7.2; Log2 differential normalized TPM ratio compared to lactose [21]: 4.5; Transcripts per million (rpm) [21]: 2460.5 rpm; Log2 differential normalized TPM ratio compared to glucose [22]: 3.3; Log2 differential normalized TPM ratio compared to lactose [22]: 2.2; Transcripts per million (rpm) [22]: 116.7 rpm; Log2 differential normalized TPM ratio compared to glucose [23]: 2.3; Log2 differential normalized TPM ratio compared to lactose [23]: 1.9; Transcripts per million (rpm) [23]: 47.5 rpm; Log2 differential normalized TPM ratio compared to glucose [24]: 4.4; Log2 differential normalized TPM ratio compared to lactose [24]: 1.5; Transcripts per million (rpm) [24]: 1700.2 rpm; Log2 differential normalized TPM ratio compared to glucose [25]: 4.6; Log2 differential normalized TPM ratio compared to lactose [25]: 1.5; Transcripts per million (rpm) [25]: 1190.8 rpm; Log2 differential normalized TPM ratio compared to glucose (LBA0911 Aminopeptidase, COG E): 3.5; Log2 differential normalized TPM ratio compared to lactose (LBA0911 Aminopeptidase, COG E): 2.4; Transcripts per million (rpm) (LBA0911 Aminopeptidase, COG E): 1553.6 rpm; Log2 differential normalized TPM ratio compared to glucose [26]: 3.2; Log2 differential normalized TPM ratio compared to lactose [26]: 2.6; Transcripts per million (rpm) [26]: 704 rpm; Log2 differential normalized TPM ratio compared to glucose (LBA1022 Arginase, COG E): −1.7; Log2 differential normalized TPM ratio compared to lactose (LBA1022 Arginase, COG E): −1.9; Transcripts per million (rpm) (LBA1022 Arginase, COG E): 63.7 rpm; Log2 differential normalized TPM ratio compared to glucose (LBA1055 Mutator protein, COG F): 1.9; Log2 differential normalized TPM ratio compared to lactose (LBA1055 Mutator protein, COG F): 2.2; Transcripts per million (rpm) (LBA1055 Mutator protein, COG F): 45.4 rpm; Log2 differential normalized TPM ratio compared to glucose [27]: 0.1; Log2 differential normalized TPM ratio compared to lactose [27]: −1.2; Transcripts per million (rpm) [27]: 31.2 rpm; Log2 differential normalized TPM ratio compared to glucose [28]: 2.3; Log2 differential normalized TPM ratio compared to lactose [28]: 1.3; Transcripts per million (rpm) [28]: 43.9 rpm; Log2 differential normalized TPM ratio compared to glucose [29]: 6; Log2 differential normalized TPM ratio compared to lactose [29]: 3.5; Transcripts per million (rpm) [29]: 318.7 rpm; Log2 differential normalized TPM ratio compared to glucose [30]: 6.7; Log2 differential normalized TPM ratio compared to lactose [30]: 3.4; Transcripts per million (rpm) [30]: 305.9 rpm
